# Publication doi:10.1101/156059
# These are yes or no findings as the source states them, for the method shown. In cells and extracts the contact can be indirect. Binding calls can cover weak binding; strength is not graded here.
# B1: δ-tubulin (TUBD1) (protein, UniProt Q9R1K7 1-455)
# chain: MSIVTVQLGQCGNQIGFEVFDALFRDSHCSQGLCSKRDNEAYQASCRERFFREEENGVPVARAVLVDMEPKVINQTLSKAAQSGRWNYGQHTSFCQKQGSGNNWAYGYSVHGPKHEESIMNLIQTEVEKCDSLSGFFIIMSMAGGTGSGLGAFVTQKLQDQYSSSLKMNQIIWPYGTGEVIVQNYNSILTLSHLYRSSDALLIHENDAVHKICAKRMNIKQISFRDLNQVLAHQLGSVFQPTYSEDSSFHYRRNPLGDLMEHLVPHPEFKMLGVRNIPQMSAASLAYSAFTWAGLLKHLRQMLISSAKMEEGINWQVRPPLTGLPPIGKASAHKEHHFNTSLANLVVLRGREVHSADVEGFKDPALYTSWLEPVDAFSVWKTQRAFDKYEKSAALVSNSQLLVKPLDMIVGKAWNMFSSKAFIHQYTKFGMEEEDFLDSFALLEQVVASYGSLGP
# B2: ε-tubulin (TUBE1) (protein, UniProt Q9D6T1 1-475)
# chain: MTQSVVVQVGQCGNQIGCCFWDLALREHAAVNQKGIYDDAISSFFRNVDTRAVGDGGSISKGRISSLKARAVLIDMEEGVVNEILQGPLRDVFDSKQLITDISGSGNNWAVGHKVFGCLYREQILEKLRKSAEQCDCLQCFFIIHSMGGGTGSGLGTFLLKVLEDEFPEVYRFVTAVYPSSEDDVITSPYNSMLAMKELNEHADCVLPIDNQSLFDIISKIDLVVNSGKLGSAVKPKSLITSNMGAVKKHHKKPFDAMNNIVANLLLSLTSSARFEGSLNMDLNEISMNLVPFPKLHYLVSSLTPLYTLADVNIPPRRLDQMFSDAFSKDHQLIQADPRHSLYLACALIVRGNVQISDLRRNIERLKPALQFVSWNQEGWKTSLCSVPPVGHSHSLLALANNTCVKPTFMELRERFTRLYKKKAHLHHYLQVDGMEESTFTEAVSSLSALIQEYSDLDATKSLPVPDVPRLSVAL
# Target: 1600002H07Rik-LAP (mouse)
# Test: co-IP
row,Binder,binding
1,B1,binds
2,B2,binds
